Source: paper PMC2852410, “Shared Active Site Architecture between the Large Subunit of Eukaryotic Primase and DNA Photolyase”
For at least one entry, the source does not settle the construct or the ends of the probe. Protein sequences can lack the tags named with them.

Target: T1, PriL-CTD del381-383 (Saccharomyces cerevisiae) (UniProt P20457)
T1 sequence (looked up): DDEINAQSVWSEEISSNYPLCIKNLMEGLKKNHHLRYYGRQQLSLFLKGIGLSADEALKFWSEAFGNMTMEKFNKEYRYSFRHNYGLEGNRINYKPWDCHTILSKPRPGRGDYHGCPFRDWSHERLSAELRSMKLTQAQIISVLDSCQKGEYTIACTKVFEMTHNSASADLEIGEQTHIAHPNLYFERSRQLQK
Test: SPR
Conditions: 0.005% P20, Buffer F: 20 mM HEPES pH 6.8, 150 mM KCl, 1 mM EDTA, 25 C, SPR in buffer F + 0.005% P20, 25 C, recombinant protein, residues 316-512, protein details: N-terminal His6, removed by TEV

Row | Sequence | Kd (label: 5' biotin on S1) [µM] | Kd (label: 5' biotin, single-stranded DNA) [µM]
1 | ACTTCCATTCTCCTCTCACC (double strand) [dsDNA 20mer (biotin)] | 168 | 
2 | ACTTCCATTCTCCTCTCACC [ssDNA 20mer (biotin)] |  | 67
